For 38 molecules, cell number change and AC50 results are on record in PubChem BioAssay AID2685 (National Center for Advancing Translational Sciences (NCATS), 2010).

This assay in a line: qHTS Assay for Lipid Storage Modulators in Drosophila S3 Cells.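 As to cell number change: cells counted by Cell Tracker Red CMTPX staining in the red channel.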 The conditions noted are these: BODIPY lipid droplet fluorescence, 18-24 h; for cell number change: measured here: cell count max response, cells fed with added oleic acid. In outline:
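Drosophila S3 cells got compounds at several concentrations plus oleic acid (400 uM solution). Laser-scanning cytometry with 488 nm excitation read lipid droplets at 500-530 nm and cells at 575-640 nm. Percent activity was relative to 20 uM Triacsin C.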
A general note: qHTS replaces the single test concentration by a dilution series.

The mark [1] stands for this setting: measured here: lipid fluorescence (Fed channel) AC50, cells fed with added oleic acid.
Setting [2] is: measured here: cell number channel AC50, cells fed with added oleic acid.

This is one part of the list. The main result of the screen is listed elsewhere. These columns were measured beside it and carry no call. Compounds called inactive in the main read-out are mostly missing here. The note in brackets gives the kind of curve behind each potency; many fits are weak.

As for `CCCCCCC(O)(c1ccccc1)C(CN1CCOCC1)c1ccccc1` (stereo not drawn), the cell number change is -1.41%. For the same molecule, the AC50 under setting [1] is 29.1 µM [falling, single point].

As for `CCn1c(Cc2ccccc2)nnc1SCC(=O)Nc1cc(C)on1`, the cell number change was -4.25%. Further, the AC50 under setting [1] was 1.64 µM [falling, partial curve, poor fit].

In the case of `NC(=O)CSc1nnc(-c2ccc(S(=O)(=O)N3CCCCC3)cc2)n1-c1ccccc1`, the cell number change was 107%. Further, the AC50 under setting [2] was 23.1 µM [rising, single point]. Moreover, the AC50 under setting [1] was 29.1 µM [rising, single point].

Consider `Cc1cccc(NC(=O)Cn2c(=O)oc3ccccc32)c1`, for which the cell number change turned out to be 1.04%.

As to `COc1ccc(C2C(C#N)=C(N)Nc3nc4ccccc4n32)cc1` (stereo not drawn), the cell number change was -16.7%. The AC50 under setting [2] was 0.366 µM [rising, single point]. Under setting [1], the AC50 was 0.206 µM [rising, full curve, poor fit].

For the molecule `CSc1nc2c(c(=O)[nH]1)C(c1ccccc1)C1=C(CC(C)(C)CC1=O)N2` (stereo not drawn), the cell number change is -22.5%. Also, the AC50 under setting [2] is 3.66 µM [falling, single point].

Consider `CC1(c2nnc(-c3ccc(Cl)cc3)o2)CC(c2c(Cl)cccc2Cl)=NO1` (stereo not drawn), for which the cell number change came to 3.4%.

Take `Cc1cccc(-n2ncc(C(=O)NC3CCCC3)c2C2CCN(C(=O)OC(C)(C)C)CC2)c1`: the cell number change amounted to 68.4%. In addition, the AC50 under setting [2] is 16.4 µM [rising, single point].

Take `CCOc1ccc(NC(=O)c2ccc(NC(=O)Cc3n[nH]c(=O)c4ccccc34)cc2)cc1`: the cell number change came out at 24.3%. Moreover, the AC50 under setting [1] is 5.17 µM [rising, partial curve].

On to `CCCCN1CCNC[C@@H]1c1ccccc1`, for which the cell number change is -57.4%. In addition, under setting [2], the AC50 was 29.1 µM [falling, single point]. Further, the AC50 under setting [1] was 32.6 µM [falling, single point].

Consider `CC(=O)C1=C(C)NC(SCC(=O)c2ccc(Cl)cc2)=C(C#N)C1CC(C)C` (stereo not drawn), for which the cell number change was determined as 19.7%.

As for `COc1ccccc1-n1c(SC)nc2c(sc(=S)n2-c2ccccc2)c1=O`, the cell number change was -6.94%. The AC50 under setting [1] is 29.1 µM [rising, single point].

On to `NNC(=O)COc1ncn(-c2ccccc2)n1`, for which the cell number change was -51%. Moreover, the AC50 under setting [2] was 16.4 µM [falling, single point]. Moreover, the AC50 under setting [1] is 2.31 µM [falling, full curve].

In the case of `CCNC(=O)CC1C(=O)N(c2ccc(F)cc2)C(=O)N1CCc1ccc(OC)cc1` (stereo not drawn), the cell number change is 45.7%. Besides, the AC50 under setting [2] is 20.6 µM [rising, single point].

On to `COC(=O)CC1C(=O)NCCN1C(=O)CSc1nnc(Nc2ccc(OC)cc2)s1` (stereo not drawn), for which the cell number change is 14.6%.

Regarding `COc1ccc(-c2nc3cc(C)ccn3c2NC(=O)c2ccccc2OC)cc1`, the cell number change is -31.3%. The AC50 under setting [2] was 29.1 µM [falling, single point]. Besides, the AC50 under setting [1] is 29.1 µM [falling, single point].

Take `O=C(CSc1nc2ccccc2nc1N1CCCCC1)N1CCN(c2ccccc2)CC1`: the cell number change is -13.3%. In addition, the AC50 under setting [1] is 29.1 µM [falling, single point].

`Cc1cc(C)c2nc(NNC(=O)c3cc(-c4cccs4)nc4ccccc34)sc2c1`: the cell number change is -11.9%. Moreover, under setting [1], the AC50 was 0.651 µM [rising, full curve].

For `Cc1ccccc1C(=O)N1CCN(c2ccc(NC(=O)c3cccc(OC(C)C)c3)cc2)CC1`, the AC50 under setting [1] was 0.651 µM [rising, full curve].

In the case of `O=C(CSc1nc(-c2ccco2)cc(C(F)(F)F)n1)NC1CCCC1`, the cell number change was 15.6%. For the same molecule, the AC50 under setting [1] is 7.31 µM [rising, partial curve].

Turning to `Cc1ccc(NC(=O)Cn2nnc(C(=O)NCc3ccco3)c2N)c(C)c1`, the cell number change was 23.3%.

For the molecule `CN(c1ccc(OC(=O)c2ccc(-n3cncn3)c([N+](=O)[O-])c2)cc1)S(=O)(=O)c1ccccc1`, the cell number change was determined as 11.9%. For the same molecule, the AC50 under setting [1] was 2.06 µM [falling, partial curve].

With `COc1ccc(NC(=O)Cn2cc(C(=O)C3CC3)c3ccccc32)cc1`, the cell number change is 79.1%.

As for `COc1ccc(C(C[N+](=O)[O-])c2c(C)[nH]n(-c3ccccc3)c2=O)cc1` (stereo not drawn), the cell number change is -61.1%. Also, the half-maximal activity concentration (AC50) under setting [2] was 16.4 µM [falling, partial curve]. Besides, under setting [1], the AC50 was 16.4 µM [falling, partial curve].

As to `COc1ccc(/C=C(\NC(=O)c2ccco2)C(=O)N2CCOCC2)cc1`, the cell number change was found to be 26.9%.

As for `O=C(NC(=S)Nc1ccc(Cl)cn1)C(c1ccccc1)c1ccccc1`, the cell number change was -20.7%. For the same molecule, the AC50 under setting [1] is 14.6 µM [falling, single point].

Regarding `Cc1cc(/C=C(\C#N)C(=O)N2CCOCC2)c(C)n1C1CCCC1`, the cell number change was found to be 4.21%. Moreover, under setting [1], the AC50 was 0.13 µM [falling, full curve, poor fit].

In the case of `CN1CCN(CC(=O)N(C)c2nc(-c3ccccc3)cs2)CC1`, the cell number change is 2.45%.

For `CC1CC(C)CN(c2ccc(C(=O)OCC(=O)NC3CCCc4ccccc43)cc2[N+](=O)[O-])C1` (stereo not drawn), the cell number change was -1.12%. Under setting [1], the AC50 is 32.6 µM [falling, partial curve, poor fit].

As for `COc1ccc(CN(CC(=O)NC2CCCCC2)C(=O)CCC(=O)Nc2nccs2)cc1`, the cell number change was -11.4%.

`CC(C)c1ccc(NC(=O)NC2(C(=O)NCc3cccnc3)CCCCC2)cc1`: the cell number change was 4.03%. Moreover, the AC50 under setting [1] was 0.82 µM [rising, partial curve, poor fit].

Take `COc1cc(CN2CCC(C(=O)N3CCCC(C)C3)CC2)cc(OC)c1O` (stereo not drawn): the cell number change is -12.9%.

Regarding `CC(=O)c1cccc(Nc2nc(-c3sc(N)nc3C)cs2)c1`, the cell number change was -75.5%. Also, the AC50 under setting [2] was 11.6 µM [falling, partial curve]. Further, the AC50 under setting [1] was 0.651 µM [rising, single point].

Turning to `CCN1CCN(CCNC(=O)c2ccc(CS(=O)c3ccc(Br)cc3)o2)CC1` (stereo not drawn), the AC50 under setting [2] was 0.13 µM [falling, full curve, poor fit].

`COCCCNC(=O)/C(C#N)=C/c1c(N2CCN(c3ccc(OC)cc3)CC2)nc2c(C)cccn2c1=O`: the cell number change was -49.6%. For the same molecule, under setting [2], the AC50 is 11.6 µM [falling, partial curve]. Besides, the AC50 under setting [1] was 1.64 µM [falling, full curve].

In the case of `CCN(C(=O)CSc1nnc(-c2ccncc2)n1-c1ccccc1)C1CCS(=O)(=O)C1` (stereo not drawn), the AC50 under setting [2] is 0.00461 µM [falling, full curve, poor fit].

For `CCOC(=O)Cc1csc(NC(=O)c2cc(C)cc(C)c2)n1`, the cell number change is 151%. For the same molecule, the AC50 under setting [2] is 5.17 µM [falling, single point]. Also, the AC50 under setting [1] is 2.31 µM [falling, partial curve].

On to `Cc1cc(N/N=C/c2cccc(Cl)c2)nc(-n2nc(C)cc2C)n1`, for which the cell number change was -62.1%. The AC50 under setting [2] is 29.1 µM [falling, single point]. For the same molecule, under setting [1], the AC50 was 9.2 µM [falling, partial curve, poor fit].

For orientation: AC50 means the concentration giving half of the maximal activity seen. High values mean activity only at high concentration, low ones activity at low concentration.
